Source: PubChem BioAssay AID720504 (National Center for Advancing Translational Sciences (NCATS), 2013)
Among all 360,000 compounds or so, about 10,000 (2.8%) were called active. Inconclusive results, whose numbers are uncertain, are shown with a selection of clear calls. The call rests on the fitted dose curve; in most records, active means well fitted inhibition curve with a large enough effect; inconclusive means small, poorly fitted or top-dose-only effect; inactive means flat fitted curve, though single readings scatter. Potencies beside an inconclusive call are fits to weak or partial responses and may not hold up.

Protein sequences, listed by entry. Tags and fused reporters are not part of them.
UniProt P53350, whole entry, looked up: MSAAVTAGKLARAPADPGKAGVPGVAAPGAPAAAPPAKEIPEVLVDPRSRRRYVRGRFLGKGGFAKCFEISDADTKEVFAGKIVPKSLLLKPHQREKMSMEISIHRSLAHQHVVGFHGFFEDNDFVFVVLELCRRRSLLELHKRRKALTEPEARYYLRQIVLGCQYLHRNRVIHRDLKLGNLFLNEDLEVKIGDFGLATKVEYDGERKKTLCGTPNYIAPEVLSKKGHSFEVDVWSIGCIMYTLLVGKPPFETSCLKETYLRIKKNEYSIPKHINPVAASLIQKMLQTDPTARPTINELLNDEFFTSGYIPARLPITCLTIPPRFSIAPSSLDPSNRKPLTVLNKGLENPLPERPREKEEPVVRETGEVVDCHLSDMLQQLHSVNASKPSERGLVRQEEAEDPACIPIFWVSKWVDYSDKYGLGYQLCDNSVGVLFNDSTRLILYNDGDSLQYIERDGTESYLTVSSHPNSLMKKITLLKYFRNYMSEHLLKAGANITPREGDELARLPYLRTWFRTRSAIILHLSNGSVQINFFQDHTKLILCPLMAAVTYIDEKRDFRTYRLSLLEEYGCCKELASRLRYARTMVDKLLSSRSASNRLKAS

molecular target: Serine/threonine-protein kinase PLK1 (Homo sapiens) (UniProt P53350); test: qHTS for Inhibitors of PLK1-PDB (polo-like kinase 1 - polo-box domain): Primary Screen; details: Plk1 PBD binding of FITC phosphopeptide, fluorescence polarization; further: nearly all actives have a fitted effect of over 65% in size; on max response, negative = inhibition: series mostly up to about 57 µM
On the % scale 0 is the no-effect control and ±100 the full control effect; potency means the concentration at half of the fitted maximal effect.

SMILES	max response, negative = inhibition	Potency
O=C(NCc1ccccc1)c1ccc2c(=O)n(CC3CCCO3)c(=S)[nH]c2c1 (stereo not given)	inactive: -4.31%	–
CC(C(=O)Nc1ccccc1C(=O)N1CCOCC1)N(c1ccccc1)S(C)(=O)=O (stereo not given)	–	active: 26.7 µM
Cc1ccc(CN(C)C(=O)C2CCC(=O)N(CCc3ccccc3)C2)o1 (stereo not given)	inactive: -10.6%	–
Cn1c(=O)c2c(nc(NNC(=O)C(F)(F)F)n2C)n(C)c1=O	inactive: 5.96%	–
O=C1c2ccccc2C(=O)N1CCSc1n[nH]c(=S)s1	inactive: -13.7%	–
COc1ccc(C(=O)N2[C@@H](C(C)C)COc3cc(Br)ccc3S2(=O)=O)cc1	–	inconclusive: 18.9 µM [inhibitor, single point]
COC(=O)N/N=C/c1ccc(OC(=O)/C=C/c2ccco2)cc1	inactive: -14.1%	–
CC1CCCCN1C(=O)CSc1nc(-c2ccccc2)cn1N (stereo not given)	–	active: 23.8 µM
COC(=O)C1=C(O)/C(=C\c2cc(C)n(-c3ccc(F)cc3)c2C)N=C1C	–	inconclusive: 26.7 µM [inhibitor, single point]
CC(=O)N1N=C(c2ccc(C)cc2)CC1c1ccco1 (stereo not given)	inactive: -5.4%	–
CC(c1ccccc1)n1c(N2CCNCC2)nc2c1c(=O)[nH]c(=O)n2C (stereo not given)	inactive: -2.87%	–
CC(=O)N1c2ccc(S(=O)(=O)N3CCCC3)cc2CC1C(=O)Nc1cc(C)cc(C)c1 (stereo not given)	inactive: 10.4%	–
Nc1ccccc1N=Nc1ccccc1N	inactive: -8.05%	–
COc1cc(OC)cc(-c2nc(-c3ccccc3OC)no2)c1	–	active: 26.7 µM
Cc1ccc(O)c(C(=O)c2cnn(-c3ccccc3)c2)c1	–	active: 3.36 µM
O=C(CSc1ccsc1[N+](=O)[O-])Nc1cccc(F)c1	–	inconclusive: 29.9 µM [inhibitor, partial curve]
Cc1ccc(N(Cc2cc3ccc(C)cc3[nH]c2=O)C(=O)c2ccco2)cc1	–	active: 26.7 µM
COc1ccc(-n2c(C)cc(C(=O)CCl)c2C)cc1	–	inconclusive: 29.9 µM [inhibitor, partial curve]
COc1ccc(-n2c(Cc3cccn3C)nnc2SCC(=O)Nc2ccc(C)cc2C)cc1	–	active: 26.7 µM
CN1N=C(C(F)(F)F)CC1=O	–	inconclusive: 23.8 µM [inhibitor, single point]
NC(Cc1ccc(C(F)(F)F)cc1)c1csc(Nc2ccc(S(N)(=O)=O)cc2)n1 (stereo not given)	inactive: 2.99%	–
COc1ccc(-n2c(CNC(=O)COc3ccc(Cl)cc3)n[nH]c2=S)cc1	inactive: -23.7%	–
CC(C)NCCCCOc1cccc(Br)c1	–	active: 18.9 µM
Cc1cc(-c2n[nH]c(=S)n2/N=C/C(Br)=C/c2ccccc2)n[nH]1	–	inconclusive: 23.8 µM [inhibitor, partial curve]
CC(=C1C(=O)c2ccccc2C1=O)N1CCN(C/C=C/c2ccccc2)CC1	–	inconclusive: 7.52 µM [inhibitor, partial curve]

SMILES	max response, negative = inhibition	Potency
COc1cc2cc(CN(Cc3nnnn3Cc3ccco3)C3CCCCC3)c(=O)[nH]c2cc1OC	–	inconclusive: 21.2 µM [inhibitor, partial curve]
COc1ccccc1Cc1c(-c2ccc(OC)c(OC)c2)nc2c3ccccc3ccn12	inactive: -1.49%	–
CCCCOC(=O)c1ccc(NC(=O)c2cc(Cl)c(Cl)cc2C(=O)O)cc1	–	inconclusive: 23.8 µM [inhibitor, single point]
CCOc1cc(C(=S)N2CCOCC2)cc(Br)c1OS(=O)(=O)c1ccccc1	–	inconclusive: 10.6 µM [inhibitor, partial curve]
CC1CCCCN1C(=O)CSc1nnc(CSc2ncccn2)n1C (stereo not given)	inactive: -20.6%	–
Cn1cc(C(=O)NCCc2ccccc2)c(=O)c2cc(S(=O)(=O)N3CCOCC3)ccc21	–	active: 29.9 µM
CCc1nc(SCC(=O)c2ccccc2)c2ccccc2n1	–	inconclusive: 18.9 µM [inhibitor, partial curve]
C/C(=C\C(=O)Nc1nccs1)c1ccccc1	inactive: -16.9%	–
O=S(=O)(NC1CC1)c1ccc(S(=O)(=O)N2CCCC(c3nc(-c4cccnc4)no3)C2)cc1 (stereo not given)	–	inconclusive: 67 µM [inhibitor, partial curve]
CC1(C)CC(=O)c2cnc(N3CCc4ccccc4C3)nc2C1	inactive: 0.814%	–
CCOc1ccc(C(c2c(NC(=O)c3ccco3)sc(C)c2C)N2CCOCC2)cc1 (stereo not given)	inactive: -2.44%	–
[O-]/C(=C(\C(=S)NCc1ccc2c(c1)OCO2)[n+]1ccccc1)c1ccc(Cl)s1	–	inconclusive: 29.9 µM [inhibitor, partial curve]
O=S(=O)(c1ccc2c(c1)OCCO2)N1CCC(n2nnc3cc(F)ccc32)CC1	–	active: 21.2 µM
O=C(O)c1cc2cc(Cl)cc(Cl)c2oc1=O	–	inconclusive: 29.9 µM [inhibitor, partial curve]
O=C(Cc1c(Cl)cccc1Cl)NC1CC1	–	inconclusive: 29.9 µM [inhibitor, single point]
COc1ccc(CNC(=O)CCNC(=O)N2CCn3c2nc2ccccc23)cc1	–	active: 23.8 µM
COc1ccc(OC)c(C(=O)c2ccc(C(=O)c3cc(OC)ccc3OC)cc2)c1	inactive: -0.0116%	–
CCOc1ccc(-n2c(C)cc(C(=O)CCl)c2C)cc1	–	inconclusive: 21.2 µM [inhibitor, partial curve]
N#CC1=C(N)Oc2c(O)cc3ccccc3c2C1c1ccsc1 (stereo not given)	inactive: -13%	–
COC(=O)c1[nH]c2ccccc2c1Sc1ccccc1	–	inconclusive: 21.2 µM [inhibitor, single point]
COc1ccc(N=C2S/C(=C\c3ccc(OC(C)C(=O)O)c(OC)c3)C(=O)N2CCc2c[nH]c3ccccc23)cc1 (stereo not given)	–	inconclusive: 33.6 µM [inhibitor, partial curve]
Cc1ccc(-n2c(O)c(/C=N/n3cnnc3)c3ccccc3c2=O)cc1	–	inconclusive: 37.7 µM [inhibitor, single point]
C=CCN=C1SC(CC)C(=O)N1S(=O)(=O)c1ccc(C)cc1 (stereo not given)	–	inconclusive: 29.9 µM [inhibitor, single point]
CCN(CC)CCCC(C)n1c2nc(=O)[nH]c(=O)c-2nc2cc(Cl)ccc21 (stereo not given)	–	active: 0.752 µM
O=C(NNC(=S)NC(=O)c1cn(-c2ccccc2)nc1-c1ccccc1)c1ccncc1	–	inconclusive: 67 µM [inhibitor, partial curve]

SMILES	max response, negative = inhibition	Potency
COc1ccc(C(=O)C2CCCN(C(=O)c3csc(C(C)=O)c3)C2)c(C)c1 (stereo not given)	–	inconclusive: 21.2 µM [inhibitor, partial curve]
CC(C)CCNC(=O)C(=O)NCCC1=CCCCC1	–	inconclusive: 23.8 µM [inhibitor, single point]
c1ccc(CSc2ncccn2)cc1	–	inconclusive: 26.7 µM [inhibitor, partial curve]
O=C1c2cccnc2C(=O)N1c1cccc(-c2nc3ccccc3o2)c1	–	inconclusive: 23.8 µM [inhibitor, single point]
COn1c(SC2CCCCC2)nc2ccccc2c1=O	inactive: -21.4%	–
COc1ccc(-c2[nH]ncc2CN2CCC(N3CCSCC3)CC2)c(F)c1	–	active: 15 µM
CCOC(=O)/C=C1\CC(C(=O)OCC)Oc2c(OC)cccc21 (stereo not given)	–	inconclusive: 33.6 µM [inhibitor, single point]
Cc1cc(C)c(NC(=O)CS)c(Cl)c1	–	inconclusive: 1.68 µM [inhibitor, full curve]
Nc1[nH]c(C(=O)c2ccccc2)c(-c2ccc(Br)cc2)c1C(=O)c1cccs1	–	inconclusive: 10.6 µM [inhibitor, single point]
CCCCc1c(O)cc(C)[nH]c1=O	inactive: -2.69%	–
Cc1nc(N)sc1-c1csc(Nc2ccc(Cl)cn2)n1	–	inconclusive: 23.8 µM [inhibitor, single point]
CCS(=O)(=O)N1Cc2ccccc2CC1C(=O)Nc1cccc(C)c1 (stereo not given)	inactive: -10%	–
O=C(COC(=O)c1cc(Cl)ccc1O)NCCNC(=O)COC(=O)c1cc(Cl)ccc1O	inactive: -4.44%	–
COC(=O)c1cc(C(=O)NCCN2C(=O)S/C(=C\c3cccs3)C2=O)cc([N+](=O)[O-])c1	–	inconclusive: 29.9 µM [inhibitor, single point]
O=C(c1ccc(C(F)(F)F)cc1)C1CCCN(C(=O)c2cnccn2)C1 (stereo not given)	–	inconclusive: 23.8 µM [inhibitor, single point]
O=C1/C(=C/Nc2cccc([N+](=O)[O-])c2)CCc2ccccc21	–	inconclusive: 5.32 µM [inhibitor, full curve, poor fit]
CC1(C)CC(=O)C2=C(C1)N=C1c3ccccc3C(=O)C1C2c1ccc(Cl)cc1 (stereo not given)	inactive: -9.77%	–
COc1ccccc1CNC(=O)COC(=O)Cn1cnc2c1c(=O)n(C)c(=O)n2C	inactive: -0.164%	–
CSc1nc(-c2ccccc2)nn1C(=O)c1ccccc1	–	inconclusive: 13.4 µM [inhibitor, partial curve]
COc1cc(C(=O)O)ccc1Cl	inactive: -2.09%	–
Cc1ccc2c(c1)c1c3n2CC(=C2C(=O)OC(C)(C)OC2=O)NC3CCC1 (stereo not given)	inconclusive: -31.1% [inhibitor]	–
COc1ccc(NC(=O)c2cc3ccccc3cc2OC)cc1	–	active: 29.9 µM
Cc1cccc(N2Cc3ccc(Br)cc3C2)c1	inactive: -16.5%	–
CCC(=O)N(Cc1ccco1)c1nc(-c2cc(OC)ccc2OC)cs1	inactive: -4.55%	–
Cc1nnc(SCC2=C(C(=O)O)N3C(=O)C(NC(=O)COc4ccccc4)C3SC2)s1 (stereo not given)	–	active: 18.9 µM

2 entries drawn at random from those above:
SMILES	max response, negative = inhibition	Potency
O=C(O)c1cc2cc(Cl)cc(Cl)c2oc1=O	–	inconclusive: 29.9 µM [inhibitor, partial curve]
CC(=O)N1N=C(c2ccc(C)cc2)CC1c1ccco1 (stereo not given)	inactive: -5.4%	–

Molecules from the list above that contain a nitro group on carbon, in the order listed:
SMILES	max response, negative = inhibition	Potency
O=C(CSc1ccsc1[N+](=O)[O-])Nc1cccc(F)c1	–	inconclusive: 29.9 µM [inhibitor, partial curve]
COC(=O)c1cc(C(=O)NCCN2C(=O)S/C(=C\c3cccs3)C2=O)cc([N+](=O)[O-])c1	–	inconclusive: 29.9 µM [inhibitor, single point]
O=C1/C(=C/Nc2cccc([N+](=O)[O-])c2)CCc2ccccc21	–	inconclusive: 5.32 µM [inhibitor, full curve, poor fit]
